Publication PMC4694866
No constants are given. Whether binding was seen depends on the method and setting. In cells and extracts the contact can be indirect. Some results given as binding are weak or reduced against the parent protein; the word gives no strength.

Experiments:
[1] = biological target: T1, vitamin D receptor (human) (UniProt P11473); experiment: co-IP; HEK293T co-transfected with AF4 and both VDR and RXR, 48 h; nuclear extracts (1 mg protein), precipitated with VDR or RXR antibody and Protein-G-Agarose at 4°C, washed three times with lysis buffer; Western blot for RXR, VDR and AF4
T1 sequence: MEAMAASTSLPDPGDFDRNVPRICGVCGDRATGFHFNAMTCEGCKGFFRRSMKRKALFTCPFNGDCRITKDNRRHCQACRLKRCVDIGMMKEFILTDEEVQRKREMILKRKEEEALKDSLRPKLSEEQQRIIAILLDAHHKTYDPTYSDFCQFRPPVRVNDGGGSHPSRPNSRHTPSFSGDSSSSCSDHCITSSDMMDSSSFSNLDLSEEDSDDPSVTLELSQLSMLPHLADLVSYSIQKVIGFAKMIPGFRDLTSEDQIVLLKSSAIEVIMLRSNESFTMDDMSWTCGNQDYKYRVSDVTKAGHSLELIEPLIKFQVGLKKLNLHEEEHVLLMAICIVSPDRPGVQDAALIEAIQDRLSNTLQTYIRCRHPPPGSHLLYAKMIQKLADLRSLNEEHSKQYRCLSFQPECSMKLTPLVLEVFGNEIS

[2] = biological target: T1, vitamin D receptor (human); experiment: co-IP; HEK293T co-transfected with AF4 and only one receptor (VDR or RXR), 48 h; nuclear extracts (1 mg protein), precipitated with VDR or RXR antibody and Protein-G-Agarose at 4°C, washed three times with lysis buffer; Western blot for RXR, VDR and AF4

B1: AF4 (protein, UniProt P51825-1 1-1210)
chain: MAAQSSLYNDDRNLLRIREKERRNQEAHQEKEAFPEKIPLFGEPYKTAKGDELSSRIQNMLGNYEEVKEFLSTKSHTHRLDASENRLGKPKYPLIPDKGSSIPSSSFHTSVHHQSIHTPASGPLSVGNISHNPKMAQPRTEPMPSLHAKSCGPPDSQHLTQDRLGQEGFGSSHHKKGDRRADGDHCASVTDSAPERELSPLISLPSPVPPLSPIHSNQQTLPRTQGSSKVHGSSNNSKGYCPAKSPKDLAVKVHDKETPQDSLVAPAQPPSQTFPPPSLPSKSVAMQQKPTAYVRPMDGQDQAPSESPELKPLPEDYRQQTFEKTDLKVPAKAKLTKLKMPSQSVEQTYSNEVHCVEEILKEMTHSWPPPLTAIHTPSTAEPSKFPFPTKDSQHVSSVTQNQKQYDTSSKTHSNSQQGTSSMLEDDLQLSDSEDSDSEQTPEKPPSSSAPPSAPQSLPEPVASAHSSSAESESTSDSDSSSDSESESSSSDSEENEPLETPAPEPEPPTTNKWQLDNWLTKVSQPAAPPEGPRSTEPPRRHPESKGSSDSATSQEHSESKDPPPKSSSKAPRAPPEAPHPGKRSCQKSPAQQEPPQRQTVGTKQPKKPVKASARAGSRTSLQGEREPGLLPYGSRDQTSKDKPKVKTKGRPRAAASNEPKPAVPPSSEKKKHKSSLPAPSKALSGPEPAKDNVEDRTPEHFALVPLTESQGPPHSGSGSRTSGCRQAVVVQEDSRKDRLPLPLRDTKLLSPLRDTPPPQSLMVKITLDLLSRIPQPPGKGSRQRKAEDKQPPAGKKHSSEKRSSDSSSKLAKKRKGEAERDCDNKKIRLEKEIKSQSSSSSSSHKESSKTKPSRPSSQSSKKEMLPPPPVSSSSQKPAKPALKRSRREADTCGQDPPKSASSTKSNHKDSSIPKQRRVEGKGSRSSSEHKGSSGDTANPFPVPSLPNGNSKPGKPQVKFDKQQADLHMREAKKMKQKAELMTDRVGKAFKYLEAVLSFIECGIATESESQSSKSAYSVYSETVDLIKFIMSLKSFSDATAPTQEKIFAVLCMRCQSILNMAMFRCKKDIAIKYSRTLNKHFESSSKVAQAPSPCIASTGTPSPLSPMPSPASSVGSQSSAGSVGSSGVAATISTPVTIQNMTSSYVTITSHVLTAFDLWEQAEALTRKNKEFFARLSTNVCTLALNSSLVDLVHYTRQGFQQLQELTKTP
For B1, the binding [1] was “binds” and the binding [2] was “binds weakly”.
